Data source: PubChem BioAssay AID1508597 (Cure First, 2020)
Purpose: 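Genes whose silencing sensitises or protects ovarian cancer cells against rucaparib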 (primary screen). Cell system: human ovarian carcinoma lines grown from tumours: OCI-P5x (papillary serous) and OCI-C5x (clear cell). Knock-down reagent: siRNA pool against human genes, 1.25 pmol siRNA per well. Duration: 72 h or 96 h, depending on the cell culture. Challenge: rucaparib 20 µM (about IC30) or vehicle, present until read-out. Rucaparib or vehicle: Vehicle. Cell line: OCI-P5x (serous). Measurement: 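ATP luminescence measured at 72 or 96 h according to the culture, then normalised and expressed as percent viability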. Reading the numbers: viability, normalised: higher = more viable cells remaining. Active means: 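a well counts as a hit if its normalised viability is under 80 percent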. Meaning of the calls: active = viability under 80%; inactive = viability 80% or more.
Shown is a random part of the about 2,100 reagents, in one setting of the screen. 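Calls flag viability under 80% in either arm, not effects specific to rucaparib; the reference for percent is not stated.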 No sequences are given here. Not given: the 100% reference.

no.	target	technical replicate	viability, normalised (%)	outcome
1	TAF3	1	66.6	active
2	TAF3	2	63.7	active
3	TAF3	3	66.6	active
4	AANAT	1	49.3	active
5	AANAT	2	74.9	active
6	AANAT	3	52.2	active
7	YTHDC2	1	71	active
8	YTHDC2	2	67.9	active
9	YTHDC2	3	88.4	inactive
10	TBL1Y	1	62.1	active
11	TBL1Y	2	68	active
12	TBL1Y	3	89.1	inactive
13	CAMK4	1	105	inactive
14	CAMK4	2	86.1	inactive
15	CAMK4	3	98.6	inactive
16	CCNE1	1	44.2	active
17	CCNE1	2	49.2	active
18	CCNE1	3	49.3	active
19	PDE1B	1	56.2	active
20	PDE1B	2	63.6	active
21	PDE1B	3	67.3	active

3 entries from above, ordered by “viability, normalised (%)”, descending:
target	technical replicate	viability, normalised (%)	outcome
AANAT	2	74.9	active
YTHDC2	1	71	active
AANAT	3	52.2	active

The results go on.
no.	target	technical replicate	viability, normalised (%)	outcome
22	PHF20	1	47.1	active
23	PHF20	2	49.6	active
24	PHF20	3	69	active
25	BLK	1	64.6	active
26	BLK	2	56.2	active
27	BLK	3	61.2	active
28	POLD4	1	69.3	active
29	POLD4	2	58.8	active
30	POLD4	3	70.9	active
31	FBXO10	1	70.7	active
32	FBXO10	2	67.7	active
33	FBXO10	3	72.4	active
34	AXL	1	93.1	inactive
35	AXL	2	68.6	active
36	AXL	3	63.2	active
37	TP73	1	49.3	active
38	TP73	2	49.6	active
39	TP73	3	57.9	active
